No constants are given. Whether binding was seen depends on the method and setting. In cells and extracts the contact can be indirect. Some binding calls cover weakened binding; strength is not graded here. Sequences can lack the tags named with a protein.
Molecular target: T1, uSLC35A4 protein with C-terminal Flag tag (human) (UniProt L0R6Q1)
T1 sequence: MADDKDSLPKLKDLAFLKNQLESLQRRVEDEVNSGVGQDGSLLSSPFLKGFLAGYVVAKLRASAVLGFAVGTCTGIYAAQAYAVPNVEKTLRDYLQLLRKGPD
Test: co-IP; anti-Flag immunoprecipitate of cells expressing the Flag-tagged ORF peptide, western blot for endogenous proteins

Chains of the proteins cited; added tags and fusions are not shown.
UniProt P21796: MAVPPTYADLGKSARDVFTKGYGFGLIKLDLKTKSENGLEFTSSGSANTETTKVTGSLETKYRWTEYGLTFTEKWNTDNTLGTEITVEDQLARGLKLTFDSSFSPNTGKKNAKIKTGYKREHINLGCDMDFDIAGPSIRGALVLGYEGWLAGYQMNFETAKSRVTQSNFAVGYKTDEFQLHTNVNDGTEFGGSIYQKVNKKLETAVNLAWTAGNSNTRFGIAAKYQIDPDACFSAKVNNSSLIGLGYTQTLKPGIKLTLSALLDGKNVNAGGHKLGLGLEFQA

VDAC1 (from UniProt P21796 1-283)
binding: binds

Reference: article PMC10908861
